Results are given in words; binding and its absence hold for the method and conditions named. Binding seen in cells or lysates may run through a third protein. Some entries that bind do so weakly or less than the wild type. Where a sequence is shown, tags or fusion partners need not be part of it. Each block holds one binder with its values, some of them ahead of it.
How the values were obtained:
[1] = substrate: T1, C* (aa 1-20, 1369-2273) C-terminal truncated version of ABCA4 with a Flag tag at its C-terminus (human) (UniProt P78363); assay: co-immunoprecipitation: flag antibody beads, HA western blot, HEK293 lysate
T1 sequence: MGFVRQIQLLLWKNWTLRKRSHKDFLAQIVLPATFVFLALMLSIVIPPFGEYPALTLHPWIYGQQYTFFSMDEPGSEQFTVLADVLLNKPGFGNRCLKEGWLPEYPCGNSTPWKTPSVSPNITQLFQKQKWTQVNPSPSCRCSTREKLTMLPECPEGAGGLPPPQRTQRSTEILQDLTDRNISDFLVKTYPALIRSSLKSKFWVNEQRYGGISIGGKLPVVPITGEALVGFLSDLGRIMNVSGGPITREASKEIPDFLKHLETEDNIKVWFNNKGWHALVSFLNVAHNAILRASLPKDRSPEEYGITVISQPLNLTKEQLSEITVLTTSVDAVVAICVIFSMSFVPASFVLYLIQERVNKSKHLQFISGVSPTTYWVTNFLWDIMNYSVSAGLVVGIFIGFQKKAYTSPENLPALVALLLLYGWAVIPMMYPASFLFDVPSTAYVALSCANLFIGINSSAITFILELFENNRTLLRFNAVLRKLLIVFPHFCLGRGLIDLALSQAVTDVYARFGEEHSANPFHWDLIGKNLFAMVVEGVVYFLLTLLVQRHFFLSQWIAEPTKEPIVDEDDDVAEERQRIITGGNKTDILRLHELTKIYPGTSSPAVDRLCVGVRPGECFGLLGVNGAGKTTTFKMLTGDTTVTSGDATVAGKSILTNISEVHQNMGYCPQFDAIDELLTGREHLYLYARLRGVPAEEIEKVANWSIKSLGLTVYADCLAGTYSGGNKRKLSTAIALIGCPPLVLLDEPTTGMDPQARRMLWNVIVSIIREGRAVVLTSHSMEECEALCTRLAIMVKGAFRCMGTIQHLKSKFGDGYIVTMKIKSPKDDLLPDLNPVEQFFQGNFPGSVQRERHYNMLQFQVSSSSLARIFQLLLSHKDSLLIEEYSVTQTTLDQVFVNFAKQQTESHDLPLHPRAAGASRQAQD

[2] = target: T2, C-terminal truncated version (aa 1348-2273) of ABCA4 with a Flag tag at its C-terminus (human) (UniProt P78363); assay: as above
T2 sequence: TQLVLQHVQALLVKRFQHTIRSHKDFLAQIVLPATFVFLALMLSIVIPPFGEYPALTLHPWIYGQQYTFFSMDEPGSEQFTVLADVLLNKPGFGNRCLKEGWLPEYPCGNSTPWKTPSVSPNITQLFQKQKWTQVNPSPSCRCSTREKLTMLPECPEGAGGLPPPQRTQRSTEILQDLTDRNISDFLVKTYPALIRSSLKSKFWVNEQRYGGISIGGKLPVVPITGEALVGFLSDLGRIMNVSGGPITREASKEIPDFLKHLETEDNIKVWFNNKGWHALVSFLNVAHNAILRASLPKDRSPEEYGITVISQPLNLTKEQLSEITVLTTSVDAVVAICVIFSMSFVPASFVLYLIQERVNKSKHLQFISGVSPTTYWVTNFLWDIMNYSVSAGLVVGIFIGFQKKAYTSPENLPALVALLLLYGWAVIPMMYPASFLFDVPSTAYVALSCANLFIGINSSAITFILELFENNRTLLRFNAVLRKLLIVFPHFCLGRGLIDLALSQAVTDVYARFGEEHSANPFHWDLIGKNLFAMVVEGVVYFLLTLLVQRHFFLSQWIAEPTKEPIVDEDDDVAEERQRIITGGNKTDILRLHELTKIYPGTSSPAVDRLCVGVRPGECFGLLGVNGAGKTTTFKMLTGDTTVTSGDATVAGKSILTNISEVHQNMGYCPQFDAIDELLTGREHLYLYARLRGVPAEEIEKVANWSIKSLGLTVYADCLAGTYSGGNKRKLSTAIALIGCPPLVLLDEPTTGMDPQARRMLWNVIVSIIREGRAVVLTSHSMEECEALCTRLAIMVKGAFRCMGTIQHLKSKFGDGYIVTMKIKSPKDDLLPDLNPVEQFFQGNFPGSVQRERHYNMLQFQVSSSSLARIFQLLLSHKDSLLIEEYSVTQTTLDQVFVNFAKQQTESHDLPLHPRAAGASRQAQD

binding [1]: binds
binding [2]: binds
B1: N1220 (aa 1-1220) N-terminal truncated version of ABCA4 with an HA tag at its C-terminus (protein, not shown: small tags and cut ends)
chain: MGFVRQIQLLLWKNWTLRKRQKIRFVVELVWPLSLFLVLIWLRNANPLYSHHECHFPNKAMPSAGMLPWLQGIFCNVNNPCFQSPTPGESPGIVSNYNNSILARVYRDFQELLMNAPESQHLGRIWTELHILSQFMDTLRTHPERIAGRGIRIRDILKDEETLTLFLIKNIGLSDSVVYLLINSQVRPEQFAHGVPDLALKDIACSEALLERFIIFSQRRGAKTVRYALCSLSQGTLQWIEDTLYANVDFFKLFRVLPTLLDSRSQGINLRSWGGILSDMSPRIQEFIHRPSMQDLLWVTRPLMQNGGPETFTKLMGILSDLLCGYPEGGGSRVLSFNWYEDNNYKAFLGIDSTRKDPIYSYDRRTTSFCNALIQSLESNPLTKIAWRAAKPLLMGKILYTPDSPAARRILKNANSTFEELEHVRKLVKAWEEVGPQIWYFFDNSTQMNMIRDTLGNPTVKDFLNRQLGEEGITAEAILNFLYKGPRESQADDMANFDWRDIFNITDRTLRLVNQYLECLVLDKFESYNDETQLTQRALSLLEENMFWAGVVFPDMYPWTSSLPPHVKYKIRMDIDVVEKTNKIKDRYWDSGPRADPVEDFRYIWGGFAYLQDMVEQGITRSQVQAEAPVGIYLQQMPYPCFVDDSFMIILNRCFPIFMVLAWIYSVSMTVKSIVLEKELRLKETLKNQGVSNAVIWCTWFLDSFSIMSMSIFLLTIFIMHGRILHYSDPFILFLFLLAFSTATIMLCFLLSTFFSKASLAAACSGVIYFTLYLPHILCFAWQDRMTAELKKAVSLLSPVAFGFGTEYLVRFEEQGLGLQWSNIGNSPTEGDEFSFLLSMQMMLLDAAVYGLLAWYLDQVFPGDYGTPLPWYFLLQESYWLGGEGCSTREERALEKTEPLTEETEDPEHPEGIHDSFFEREHPGWVPGVCVKNLVKIFEPCGRPAVDRLNITFYENQITAFLGHNGAGKTTTLSILTGLLPPTSGTVLVGGRDIETSLDAVRQSLGMCPQHNILFHHLTVAEHMLFYAQLKGKSQEEAQLEMEAMLEDTGLHHKRNEEAQDLSGGMQRKLSVAIAFVGDAKVVILDEPTSGVDPYSRRSIWDLLLKYRSGRTIIMSTHHMDEADLLGDRIAIIAQGRLYCSGTPLFLKNCFGTGLYLTLVRKMKNIQSQRKGSEGTCSCSSKGFSTTCPAHVDDLTPEQVLDGDVNELMDVVLHHVPEAK

binding [1]: binds
binding [2]: binds
B2: N-terminal truncated version (aa 1-1347) of ABCA4 with an HA tag at its C-terminus (other)
chain: MGFVRQIQLLLWKNWTLRKRQKIRFVVELVWPLSLFLVLIWLRNANPLYSHHECHFPNKAMPSAGMLPWLQGIFCNVNNPCFQSPTPGESPGIVSNYNNSILARVYRDFQELLMNAPESQHLGRIWTELHILSQFMDTLRTHPERIAGRGIRIRDILKDEETLTLFLIKNIGLSDSVVYLLINSQVRPEQFAHGVPDLALKDIACSEALLERFIIFSQRRGAKTVRYALCSLSQGTLQWIEDTLYANVDFFKLFRVLPTLLDSRSQGINLRSWGGILSDMSPRIQEFIHRPSMQDLLWVTRPLMQNGGPETFTKLMGILSDLLCGYPEGGGSRVLSFNWYEDNNYKAFLGIDSTRKDPIYSYDRRTTSFCNALIQSLESNPLTKIAWRAAKPLLMGKILYTPDSPAARRILKNANSTFEELEHVRKLVKAWEEVGPQIWYFFDNSTQMNMIRDTLGNPTVKDFLNRQLGEEGITAEAILNFLYKGPRESQADDMANFDWRDIFNITDRTLRLVNQYLECLVLDKFESYNDETQLTQRALSLLEENMFWAGVVFPDMYPWTSSLPPHVKYKIRMDIDVVEKTNKIKDRYWDSGPRADPVEDFRYIWGGFAYLQDMVEQGITRSQVQAEAPVGIYLQQMPYPCFVDDSFMIILNRCFPIFMVLAWIYSVSMTVKSIVLEKELRLKETLKNQGVSNAVIWCTWFLDSFSIMSMSIFLLTIFIMHGRILHYSDPFILFLFLLAFSTATIMLCFLLSTFFSKASLAAACSGVIYFTLYLPHILCFAWQDRMTAELKKAVSLLSPVAFGFGTEYLVRFEEQGLGLQWSNIGNSPTEGDEFSFLLSMQMMLLDAAVYGLLAWYLDQVFPGDYGTPLPWYFLLQESYWLGGEGCSTREERALEKTEPLTEETEDPEHPEGIHDSFFEREHPGWVPGVCVKNLVKIFEPCGRPAVDRLNITFYENQITAFLGHNGAGKTTTLSILTGLLPPTSGTVLVGGRDIETSLDAVRQSLGMCPQHNILFHHLTVAEHMLFYAQLKGKSQEEAQLEMEAMLEDTGLHHKRNEEAQDLSGGMQRKLSVAIAFVGDAKVVILDEPTSGVDPYSRRSIWDLLLKYRSGRTIIMSTHHMDEADLLGDRIAIIAQGRLYCSGTPLFLKNCFGTGLYLTLVRKMKNIQSQRKGSEGTCSCSSKGFSTTCPAHVDDLTPEQVLDGDVNELMDVVLHHVPEAKLVECIGQELIFLLPNKNFKHRAYASLFRELEETLADLGLSSFGISDTPLEEIFLKVTEDSDSGPLFAGGAQQKRENVNPRHPCLGPREKAGQTPQDSNVCSPGAPAAHPEGQPPPEPECPGPQLNTG
notes: Expressed in HEK293 cells from a codon-optimized CDS; tested in cell lysate; also called N1347; not shown: hemagglutinin (HA) tag linked to the C-terminus

Reference: patent US20240425876A1 (CHIGENOVO, published 2024)
